At least one structure is not confirmed: it was looked up by name or label, or the drawing left a doubt.
Test system: E. coli DH5α expressing homoprotocatechuate 2,3-dioxygenase (2,3-HPCD)
Assay type: cell-based
Conditions: 1% w/v for 20 minutes
Method: A 200 μL aliquot of 500 μM DHPAC in 50 mM PB at pH 7.5 was added to each well and A380 was measured for up to one hour. The data was then fit to a first order reaction model of the form:
Cp(t)=Cs,0(1−e^−k^r^t) (4)
Cp is the product concentration, Cs,0 is the initial substrate concentration, and kr is the first order reaction rate constant.

## C[C@H](CCC(=O)O)[C@H]1CC[C@H]2[C@@H]3CC[C@@H]4C[C@H](O)CC[C@]4(C)[C@H]3C[C@H](O)[C@]12C [Deoxycholic Acid, Deoxycholic acid]
  change in biocatalytic activity after detergent/surfactant treatment: much stronger effects
